# The list shows a part of the results.
# Experiments:
# Test in all cases: glycan array binding signal (z-score within array); higher = stronger binding
# Conditions in all cases: glycan notation: IUPAC condensed, linker removed
# Neu5Ac(a2-3)Gal = target: Neu5Ac(a2-3)Gal
# Procedure, shortened: (§1)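 Glycan array data were curated from 3228 arrays in the Consortium for Functional Glycomics database and kept only where the protein sequence was available. Glycan names were converted to IUPAC-condensed notation, and columns mapping to the same glycan were averaged. The binding signal is a within-array Z-score, averaged across arrays of the same protein sequence at different concentrations or buffers and across linkers. Negative Z-scores can be read as non-binding.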
# [1] = target: Neu5Ac(a2-3)Gal(b1-3)GalNAc
# Procedure, shortened: as §1
# [2] = target: Neu5Ac(a2-3)Gal(b1-3)GalNAc(b1-3)Gal(a1-4)Gal(b1-4)Glc
# Procedure, shortened: as §1
# [3] = target: Neu5Ac(a2-3)Gal(b1-3)GalNAc(b1-4)[Neu5Ac(a2-3)]Gal(b1-4)Glc
# Procedure, shortened: as §1
# [4] = target: Neu5Ac(a2-3)Gal(b1-3)GalNAc(b1-4)[Neu5Ac(a2-8)Neu5Ac(a2-3)]Gal(b1-4)Glc
# Procedure, shortened: as §1
# [5] = target: Neu5Ac(a2-3)Gal(b1-3)GalNAc6S
# Procedure, shortened: as §1
# [6] = target: Neu5Ac(a2-3)Gal(b1-3)GlcNAc
# Procedure, shortened: as §1
# [7] = target: Neu5Ac(a2-3)Gal(b1-3)GlcNAc(b1-2)Man
# Procedure, shortened: as §1
# [8] = target: Neu5Ac(a2-3)Gal(b1-3)GlcNAc(b1-2)Man(a1-3)[GlcNAc(b1-4)][Neu5Ac(a2-3)Gal(b1-3)GlcNAc(b1-2)Man(a1-6)]Man(b1-4)GlcNAc(b1-4)GlcNAc
# Procedure, shortened: as §1
# [9] = target: Neu5Ac(a2-3)Gal(b1-3)GlcNAc(b1-2)Man(a1-3)[Neu5Ac(a2-3)Gal(b1-3)GlcNAc(b1-2)Man(a1-6)]Man(b1-4)GlcNAc(b1-4)GlcNAc
# Procedure, shortened: as §1
# [10] = target: Neu5Ac(a2-3)Gal(b1-3)GlcNAc(b1-2)[Neu5Ac(a2-3)Gal(b1-3)GlcNAc(b1-4)]Man(a1-6)[Neu5Ac(a2-3)Gal(b1-3)GlcNAc(b1-2)Man(a1-3)]Man(b1-4)GlcNAc(b1-4)GlcNAc
# Procedure, shortened: as §1
# [11] = target: Neu5Ac(a2-3)Gal(b1-3)GlcNAc(b1-3)Gal(b1-3)GlcNAc
# Procedure, shortened: as §1
# [12] = target: Neu5Ac(a2-3)Gal(b1-3)GlcNAc(b1-3)Gal(b1-4)GlcNAc
# Procedure, shortened: as §1
# [13] = target: Neu5Ac(a2-3)Gal(b1-3)GlcNAc(b1-3)GalNAc
# Procedure, shortened: as §1
# [14] = target: Neu5Ac(a2-3)Gal(b1-3)GlcNAc(b1-4)Gal(b1-4)Glc
# Procedure, shortened: as §1
# [15] = target: Neu5Ac(a2-3)Gal(b1-3)GlcNAc(b1-6)GalNAc
# Procedure, shortened: as §1
# [16] = target: Neu5Ac(a2-3)Gal(b1-3)GlcNAc6S
# Procedure, shortened: as §1
# [17] = target: Neu5Ac(a2-3)Gal(b1-3)[Fuc(a1-4)]GlcNAc
# Procedure, shortened: as §1
# [18] = target: Neu5Ac(a2-3)Gal(b1-3)[Fuc(a1-4)]GlcNAc(b1-3)Gal(b1-3)[Fuc(a1-4)]GlcNAc
# Procedure, shortened: as §1
# [19] = target: Neu5Ac(a2-3)Gal(b1-3)[Fuc(a1-4)]GlcNAc(b1-3)Gal(b1-4)[Fuc(a1-3)]GlcNAc
# Procedure, shortened: as §1
# [20] = target: Neu5Ac(a2-3)Gal(b1-3)[GlcNAc(b1-6)]GalNAc
# Procedure, shortened: as §1
# [21] = target: Neu5Ac(a2-3)Gal(b1-3)[Neu5Ac(a2-6)]GalNAc
# Procedure, shortened: as §1
# [22] = target: Neu5Ac(a2-3)Gal(b1-3)[Neu5Ac(a2-6)]GlcNAc(b1-3)[Fuc(a1-3)[Gal(b1-4)]GlcNAc(b1-6)]Gal(b1-4)Glc
# Procedure, shortened: as §1
# [23] = target: Neu5Ac(a2-3)Gal(b1-3)]Neu5Ac(a2-3)Gal(b1-4)]GlcNAc
# Procedure, shortened: as §1
# Neu5Ac(a2-3)Gal(b1-4)Glc = target: Neu5Ac(a2-3)Gal(b1-4)Glc
# Procedure, shortened: as §1
# [24] = target: Neu5Ac(a2-3)Gal(b1-4)GlcNAc
# Procedure, shortened: as §1
# [25] = target: Neu5Ac(a2-3)Gal(b1-4)GlcNAc(b1-2)Man
# Procedure, shortened: as §1
# [26] = target: Neu5Ac(a2-3)Gal(b1-4)GlcNAc(b1-2)Man(a1-3)[GlcNAc(b1-4)][Neu5Ac(a2-3)Gal(b1-4)GlcNAc(b1-2)Man(a1-6)]Man(b1-4)GlcNAc(b1-4)GlcNAc
# Procedure, shortened: as §1
# [27] = target: Neu5Ac(a2-3)Gal(b1-4)GlcNAc(b1-2)Man(a1-3)[Neu5Ac(a2-3)Gal(b1-4)GlcNAc(b1-2)Man(a1-6)]Man(b1-4)GlcNAc(b1-4)GlcNAc
# Procedure, shortened: as §1
# [28] = target: Neu5Ac(a2-3)Gal(b1-4)GlcNAc(b1-2)Man(a1-3)[Neu5Ac(a2-3)Gal(b1-4)GlcNAc(b1-2)Man(a1-6)]Man(b1-4)GlcNAc(b1-4)[Fuc(a1-6)]GlcNAc
# Procedure, shortened: as §1
# [29] = target: Neu5Ac(a2-3)Gal(b1-4)GlcNAc(b1-2)Man(a1-3)[Neu5Ac(a2-6)Gal(b1-4)GlcNAc(b1-2)Man(a1-6)]Man(b1-4)GlcNAc(b1-4)GlcNAc
# Procedure, shortened: as §1
# [30] = target: Neu5Ac(a2-3)Gal(b1-4)GlcNAc(b1-2)[Neu5Ac(a2-3)Gal(b1-4)GlcNAc(b1-4)]Man(a1-3)[GlcNAc(b1-4)][Neu5Ac(a2-3)Gal(b1-4)GlcNAc(b1-2)[Neu5Ac(a2-3)Gal(b1-4)GlcNAc(b1-6)]Man(a1-6)]Man(b1-4)GlcNAc(b1-4)GlcNAc
# Procedure, shortened: as §1
# [31] = target: Neu5Ac(a2-3)Gal(b1-4)GlcNAc(b1-2)[Neu5Ac(a2-3)Gal(b1-4)GlcNAc(b1-4)]Man(a1-3)[GlcNAc(b1-4)][Neu5Ac(a2-3)Gal(b1-4)GlcNAc(b1-4)Man(a1-6)]Man(b1-4)GlcNAc(b1-4)GlcNAc
# Procedure, shortened: as §1
# [32] = target: Neu5Ac(a2-3)Gal(b1-4)GlcNAc(b1-2)[Neu5Ac(a2-3)Gal(b1-4)GlcNAc(b1-6)]Man(a1-6)[Neu5Ac(a2-3)Gal(b1-4)GlcNAc(b1-2)Man(a1-3)][GlcNAc(b1-4)]Man(b1-4)GlcNAc(b1-4)GlcNAc
# Procedure, shortened: as §1
# [33] = target: Neu5Ac(a2-3)Gal(b1-4)GlcNAc(b1-3)Gal
# Procedure, shortened: as §1
# [34] = target: Neu5Ac(a2-3)Gal(b1-4)GlcNAc(b1-3)Gal(b1-3)GlcNAc
# Procedure, shortened: as §1
# [35] = target: Neu5Ac(a2-3)Gal(b1-4)GlcNAc(b1-3)Gal(b1-4)GlcNAc
# Procedure, shortened: as §1
binder,measurement,setting,value
SabA (Helicobacter pylori) (protein) MGSSHHHHHHSSGLVPRGSHMENLYFQGEDNGFFVSAGYQIGEAVQMVKNTGELKNLNEKYEQLSQYLNQVASLKQSIQNANNIELVNSSLNYLKSFTNNNYNSTTQSPIFNAVQAVITSVLGFWSLYAGNYFTFFVGKKVGDSGQPASVQGNPPFKTIIENCSGIENCAMDQTTYDKMKKLAEDLQAAQTNSATKGNNLCALSGCAATDSTSNPPNSTVSNALNLAQQLMDLIANTKTAMMWKNIVISGVSNTSGAITSTNYPTQYAVFNNIKAMIPILQQAVTLSQSNHTLSASLQAQATGSQTNPKFAKDIYTFAQNQKQVISYAQDIFNLFNSIPAEQYKYLEKAYLKIPNAGSTPTNPYRQVVNLNQEVQTIKNNVSYYGNRVDAALSVARDVYNLKSNQAEIVTAYNDAKTLSEEISKLPHNQVNTKDIVTLPYDKNAPAAGQSNYQINPEQQSNLNQALAAMSNNPFKKVGMISSQNNNGA,glycan array binding signal (z-score),Neu5Ac(a2-3)Gal,-0.478
same,glycan array binding signal (z-score),[1],0.965
same,glycan array binding signal (z-score),[2],0.16
same,glycan array binding signal (z-score),[3],0.887
same,glycan array binding signal (z-score),[4],-0.312
same,glycan array binding signal (z-score),[5],-0.159
same,glycan array binding signal (z-score),[6],-0.231
same,glycan array binding signal (z-score),[7],-0.613
same,glycan array binding signal (z-score),[8],-0.379
same,glycan array binding signal (z-score),[9],1.79
same,glycan array binding signal (z-score),[10],0.359
same,glycan array binding signal (z-score),[11],-0.941
same,glycan array binding signal (z-score),[12],-0.789
same,glycan array binding signal (z-score),[13],-0.131
same,glycan array binding signal (z-score),[14],-0.865
same,glycan array binding signal (z-score),[15],-0.507
same,glycan array binding signal (z-score),[16],-0.559
same,glycan array binding signal (z-score),[17],-0.968
same,glycan array binding signal (z-score),[18],0.27
same,glycan array binding signal (z-score),[19],-0.152
same,glycan array binding signal (z-score),[20],-0.888
same,glycan array binding signal (z-score),[21],-0.285
same,glycan array binding signal (z-score),[22],-0.626
same,glycan array binding signal (z-score),[23],0.162
same,glycan array binding signal (z-score),Neu5Ac(a2-3)Gal(b1-4)Glc,2.88
same,glycan array binding signal (z-score),[24],0.046
same,glycan array binding signal (z-score),[25],1.52
same,glycan array binding signal (z-score),[26],-0.359
same,glycan array binding signal (z-score),[27],0.218
same,glycan array binding signal (z-score),[28],-0.235
same,glycan array binding signal (z-score),[29],-0.357
same,glycan array binding signal (z-score),[30],0.219
same,glycan array binding signal (z-score),[31],-0.642
same,glycan array binding signal (z-score),[32],-0.617
same,glycan array binding signal (z-score),[33],-0.41
same,glycan array binding signal (z-score),[34],-0.735
same,glycan array binding signal (z-score),[35],-0.762

# 2 records picked at random from the list so far:
binder,measurement,setting,value
SabA (Helicobacter pylori) (protein) MGSSHHHHHHSSGLVPRGSHMENLYFQGEDNGFFVSAGYQIGEAVQMVKNTGELKNLNEKYEQLSQYLNQVASLKQSIQNANNIELVNSSLNYLKSFTNNNYNSTTQSPIFNAVQAVITSVLGFWSLYAGNYFTFFVGKKVGDSGQPASVQGNPPFKTIIENCSGIENCAMDQTTYDKMKKLAEDLQAAQTNSATKGNNLCALSGCAATDSTSNPPNSTVSNALNLAQQLMDLIANTKTAMMWKNIVISGVSNTSGAITSTNYPTQYAVFNNIKAMIPILQQAVTLSQSNHTLSASLQAQATGSQTNPKFAKDIYTFAQNQKQVISYAQDIFNLFNSIPAEQYKYLEKAYLKIPNAGSTPTNPYRQVVNLNQEVQTIKNNVSYYGNRVDAALSVARDVYNLKSNQAEIVTAYNDAKTLSEEISKLPHNQVNTKDIVTLPYDKNAPAAGQSNYQINPEQQSNLNQALAAMSNNPFKKVGMISSQNNNGA,glycan array binding signal (z-score),[12],-0.789
same,glycan array binding signal (z-score),[1],0.965
